Publication PMC3823977
Where a chain is given by its changes, count along the chain named. Names and notes keep the numbering of the source. No constants are given. Whether binding was seen depends on the method and setting. For some assays here: Binding seen in cells or lysates may run through a third protein. Some entries that bind do so weakly or less than the wild type. For some assays here: Sequences can lack the tags named with a protein.

B1: SETX library prey clone (amino acids 1–668, N-term) (domain or fragment, UniProt Q7Z333-1 1-668)
chain: MSTCCWCTPGGASTIDFLKRYASNTPSGEFQTADEDLCYCLECVAEYHKARDELPFLHEVLWELETLRLINHFEKSMKAEIGDDDELYIVDNNGEMPLFDITGQDFENKLRVPLLEILKYPYLLLHERVNELCVEALCRMEQANCSFQVFDKHPGIYLFLVHPNEMVRRWAILTARNLGKVDRDDYYDLQEVLLCLFKVIELGLLESPDIYTSSVLEKGKLILLPSHMYDTTNYKSYWLGICMLLTILEEQAMDSLLLGSDKQNDFMQSILHTMEREADDDSVDPFWPALHCFMVILDRLGSKVWGQLMDPIVAFQTIINNASYNREIRHIRNSSVRTKLEPESYLDDMVTCSQIVYNYNPEKTKKDSGWRTAICPDYCPNMYEEMETLASVLQSDIGQDMRVHNSTFLWFIPFVQSLMDLKDLGVAYIAQVVNHLYSEVKEVLNQTDAVCDKVTEFFLLILVSVIELHRNKKCLHLLWVSSQQWVEAVVKCAKLPTTAFTRSSEKSSGNCSKGTAMISSLSLHSMPSNSVQLAYVQLIRSLLKEGYQLGQQSLCKRFWDKLNLFLRGNLSLGWQLTSQETHELQSCLKQIIRNIKFKAPPCNTFVDLTSACKISPASYNKEESEQMGKTSRKDMHCLEASSPTFSKEPMKVQDSVLIKADNTIEGDN
B2: PIAS, E3 SUMO-protein ligase, library prey clone (318–652 ter) (domain or fragment, UniProt O75925-1 318-651)
chain: ADPDSEIATTSLRVSLLCPLGKMRLTIPCRALTCSHLQCFDATLYIQMNEKKPTWVCPVCDKKAPYEHLIIDGLFMEILKYCTDCDEIQFKEDGTWAPMRSKKEVQEVSASYNGVDGCLSSTLEHQVASHHQSSNKNKKVEVIDLTIDSSSDEEEEEPSAKRTCPSLSPTSPLNNKGILSLPHQASPVSRTPSLPAVDTSYINTSLIQDYRHPFHMTPMPYDLQGLDFFPFLSGDNQHYNTSLLAAAAAAVSDDQDLLHSSRFFPYTSSQMFLDQLSAGGSTSLPTTNGSSSGSNSSLVSSNSLRESHSHTVTNRSSTDTASIFGIIPDIISLD
B3: TOPORS, topoisomerase I-binding arginine/serine-rich protein, library prey clone (468–1046 ter) (domain or fragment, UniProt Q9NS56-1 468-1045)
chain: NNDSDDSSDNCVIVGFVKPLAERTPELVELSSDSEDLGSYEKMETVKTQEQEQSYSSGDSDVSRCSSPHSVLGKDEQINKGHCDSSTRIKSKKEEKRSTSLSSPRNLNSSVRGDRVYSPYNHRHRKRGRSRSSDSRSQSRSGHDQKNHRKHHGKKRMKSKRSRSRESSRPRGRRDKKRSRTRDSSWSRRSQTLSLSSESTSRSRSRSSDHGKRRSRSRNRDRYYLRNNYGSRYKWEYTYYSRNKDRDGYESSYRRRTLSRAHYSRQSSSPEFRVQSFSERTNARKKNNHSERKYYYYERHRSRSLSSNRSRTASTGTDRVRNEKPGGKRKYKTRHLEGTNEVAQPSREFASKAKDSHYQKSSSKLDGNYKNESDTFSDSRSSDRETKHKRRKRKTRSLSVEIVYEGKATDTTKHHKKKKKKHKKKHKKHHGDNASRSPVVITIDSDSDKDSEVKEDTECDNSGPQDPLQNEFLAPSLEPFETKDVVTIEAEFGVLDKECDIATLSNNLNNANKTVDNIPPLAASVEQTLDVREESTFVSDLENQPSNIVSLQTEPSRQLPSPRTSLMSVCLGRDCDMS
B4: HIPK2, homeodomain interacting protein-kinase 2, library prey clone (216–527) (domain or fragment, UniProt Q9H2X6-1 216-527)
chain: CWKRGTNEIVAIKILKNHPSYARQGQIEVSILARLSTESADDYNFVRAYECFQHKNHTCLVFEMLEQNLYDFLKQNKFSPLPLKYIRPVLQQVATALMKLKSLGLIHADLKPENIMLVDPSRQPYRVKVIDFGSASHVSKAVCSTYLQSRYYRAPEIILGLPFCEAIDMWSLGCVIAELFLGWPLYPGASEYDQIRYISQTQGLPAEYLLSAGTKTTRFFNRDTDSPYPLWRLKTPDDHEAETGIKSKEARKYIFNCLDDMAQVNMTTDLEGSDMLVEKADRREFIDLLKKMLTIDADKRITPIETLNHPFV
B5: SETX (1–650 wt) in the CheckMate mammalian two-hybrid system (pBIND-SETX and pACT-SETX) (domain or fragment, UniProt Q7Z333-1 1-650)
chain: MSTCCWCTPGGASTIDFLKRYASNTPSGEFQTADEDLCYCLECVAEYHKARDELPFLHEVLWELETLRLINHFEKSMKAEIGDDDELYIVDNNGEMPLFDITGQDFENKLRVPLLEILKYPYLLLHERVNELCVEALCRMEQANCSFQVFDKHPGIYLFLVHPNEMVRRWAILTARNLGKVDRDDYYDLQEVLLCLFKVIELGLLESPDIYTSSVLEKGKLILLPSHMYDTTNYKSYWLGICMLLTILEEQAMDSLLLGSDKQNDFMQSILHTMEREADDDSVDPFWPALHCFMVILDRLGSKVWGQLMDPIVAFQTIINNASYNREIRHIRNSSVRTKLEPESYLDDMVTCSQIVYNYNPEKTKKDSGWRTAICPDYCPNMYEEMETLASVLQSDIGQDMRVHNSTFLWFIPFVQSLMDLKDLGVAYIAQVVNHLYSEVKEVLNQTDAVCDKVTEFFLLILVSVIELHRNKKCLHLLWVSSQQWVEAVVKCAKLPTTAFTRSSEKSSGNCSKGTAMISSLSLHSMPSNSVQLAYVQLIRSLLKEGYQLGQQSLCKRFWDKLNLFLRGNLSLGWQLTSQETHELQSCLKQIIRNIKFKAPPCNTFVDLTSACKISPASYNKEESEQMGKTSRKDMHCLEASSPTFSKEPM
B6: SETX (1–650 L389S) in the CheckMate mammalian two-hybrid system (pBIND-SETX and pACT-SETX) (domain or fragment, UniProt Q7Z333-1 1-650)
chain: B5 chain with L389S
B7: SAE2, SUMO-1 activating enzyme subunit 2, library prey clone (451–641 ter) (domain or fragment, UniProt Q9UBT2-1 451-640)
chain: TVRLNVHKVTVLTLQDKIVKEKFAMVAPDVQIEDGKGTILISSEEGETEANNHKKLSEFGIRNGSRLQADDFLQDYTLLINILHSEDLGKDVEFEVVGDAPEKVGPKQAEDAAKSITNGSDDGAQPSTSTAQEQDDVLIVDSDEEDSSNNADVSEEERSRKRKLDEKENLSAKRSRIEQKEELDDVIALD
B8: Flag-wt-SETX, FLAG-tagged amino-terminal senataxin (1–650), wild type (domain or fragment, UniProt Q7Z333-1 1-650)
chain: B5 chain

How the values were obtained:
[1] = target: T1, BD-SETX-W305C, senataxin amino-terminal bait with the AOA2 mutation W305C (human) (UniProt Q7Z333); assay: two-hybrid; yeast, Matchmaker GAL4 system; senataxin 1–650 baits in pGBKT7-BD, human brain library preys in pGADT7-Rec; library screens by mating, retest by mating and by co-transformation with patching of serial dilutions on Leu-/Trp-/His- medium with 3 mM 3-AT
T1 sequence: B5 chain with W305C

[2] = target: T2, BD-SETX-L389S, senataxin residues 1–650 with the ALS4 L389S mutation as yeast two-hybrid bait (human) (UniProt Q7Z333); assay: as above
T2 sequence: B5 chain with L389S

[3] = target: T3, BD-SETX-wt, wild type senataxin residues 1–650 as yeast two-hybrid bait (human) (UniProt Q7Z333); assay: as above
T3 sequence: B5 chain

[4] = target: T4, SETX (1–650 wt) in the CheckMate mammalian two-hybrid system (pBIND-SETX and pACT-SETX) (human) (UniProt Q7Z333); assay: two-hybrid; CheckMate mammalian two-hybrid (Promega), pBIND and pACT fusions, luciferase activity, three transfection experiments
T4 sequence: B5 chain

[5] = target: SETX (1–650 L389S) in the CheckMate mammalian two-hybrid system (pBIND-SETX and pACT-SETX) (human) (UniProt Q7Z333); assay: as above
[6] = target: T5, C14orf178-GFP, GFP-tagged C14orf178 isoform1 (human) (UniProt Q8N769); assay: co-IP; HEK293 cells co-transfected, RIPA lysate, anti-GFP magnetic beads overnight at 4°C, anti-FLAG blot
T5 sequence: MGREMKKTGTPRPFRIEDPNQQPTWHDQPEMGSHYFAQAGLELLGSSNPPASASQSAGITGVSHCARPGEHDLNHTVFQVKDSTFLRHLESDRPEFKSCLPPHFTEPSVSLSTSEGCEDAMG

[7] = target: Flag-wt-SETX, FLAG-tagged amino-terminal senataxin (1–650), wild type (human) (UniProt Q7Z333); assay: cross-linking; HeLa cells transfected with FLAG-tagged amino-terminal senataxin, treated with disuccinimidyl suberate (DSS), anti-FLAG Western blot

| Binder | binding [1] | binding [2] | binding [3] | binding [4] | binding [5] | binding [6] | binding [7] |
| --- | --- | --- | --- | --- | --- | --- | --- |
| B1 | binds | binds | binds | – | – | – | – |
| B2 | binds | binds | binds | – | – | – | – |
| B3 | binds | binds | binds | – | – | – | – |
| B4 | binds | binds | binds | – | – | – | – |
| B5 | – | – | – | binds | – | – | – |
| B6 | – | – | – | binds | binds | – | – |
| B7 | binds | binds | binds | – | – | – | – |
| B8 | – | – | – | – | – | no binding | binds |
